In the supplement of paper PMC6411743:
± gives the standard deviation of the averaged measurements. The list shows a part of the results, in another mix than the full data.

Amino acid sequences for entries named in this document (tags omitted). A change or cut given only in a name is not applied to a line headed by its entry.
UniProt Q96RP9: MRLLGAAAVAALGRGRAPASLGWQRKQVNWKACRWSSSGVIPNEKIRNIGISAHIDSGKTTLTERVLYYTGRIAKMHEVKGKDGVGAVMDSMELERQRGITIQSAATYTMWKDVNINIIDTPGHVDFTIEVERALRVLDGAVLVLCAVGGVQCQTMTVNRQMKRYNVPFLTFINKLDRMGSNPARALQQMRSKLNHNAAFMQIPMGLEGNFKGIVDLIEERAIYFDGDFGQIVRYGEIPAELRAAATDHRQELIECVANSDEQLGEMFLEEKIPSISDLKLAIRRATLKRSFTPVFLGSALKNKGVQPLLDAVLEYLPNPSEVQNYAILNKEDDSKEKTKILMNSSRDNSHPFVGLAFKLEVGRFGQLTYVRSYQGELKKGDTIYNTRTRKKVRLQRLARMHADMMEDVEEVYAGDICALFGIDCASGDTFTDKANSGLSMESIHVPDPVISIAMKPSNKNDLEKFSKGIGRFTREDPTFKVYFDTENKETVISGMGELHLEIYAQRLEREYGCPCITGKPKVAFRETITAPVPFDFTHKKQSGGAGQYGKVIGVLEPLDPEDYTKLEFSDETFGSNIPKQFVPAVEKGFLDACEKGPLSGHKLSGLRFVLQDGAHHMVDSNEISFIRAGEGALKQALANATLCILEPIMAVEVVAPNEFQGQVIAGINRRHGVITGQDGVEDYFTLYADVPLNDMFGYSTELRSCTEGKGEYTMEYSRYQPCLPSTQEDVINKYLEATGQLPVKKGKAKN
UniProt Q99538: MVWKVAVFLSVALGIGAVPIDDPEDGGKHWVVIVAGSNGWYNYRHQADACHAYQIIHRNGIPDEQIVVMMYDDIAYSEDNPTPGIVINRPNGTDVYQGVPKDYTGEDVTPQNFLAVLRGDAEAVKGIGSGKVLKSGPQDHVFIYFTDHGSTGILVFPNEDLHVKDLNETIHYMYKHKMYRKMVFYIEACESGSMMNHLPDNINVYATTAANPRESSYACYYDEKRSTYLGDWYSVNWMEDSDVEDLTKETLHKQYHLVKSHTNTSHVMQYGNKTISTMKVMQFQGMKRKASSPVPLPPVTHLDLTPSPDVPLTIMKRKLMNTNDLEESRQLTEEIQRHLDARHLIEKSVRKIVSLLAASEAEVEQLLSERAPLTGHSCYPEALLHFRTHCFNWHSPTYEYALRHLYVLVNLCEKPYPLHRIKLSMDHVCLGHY
UniProt Q99728: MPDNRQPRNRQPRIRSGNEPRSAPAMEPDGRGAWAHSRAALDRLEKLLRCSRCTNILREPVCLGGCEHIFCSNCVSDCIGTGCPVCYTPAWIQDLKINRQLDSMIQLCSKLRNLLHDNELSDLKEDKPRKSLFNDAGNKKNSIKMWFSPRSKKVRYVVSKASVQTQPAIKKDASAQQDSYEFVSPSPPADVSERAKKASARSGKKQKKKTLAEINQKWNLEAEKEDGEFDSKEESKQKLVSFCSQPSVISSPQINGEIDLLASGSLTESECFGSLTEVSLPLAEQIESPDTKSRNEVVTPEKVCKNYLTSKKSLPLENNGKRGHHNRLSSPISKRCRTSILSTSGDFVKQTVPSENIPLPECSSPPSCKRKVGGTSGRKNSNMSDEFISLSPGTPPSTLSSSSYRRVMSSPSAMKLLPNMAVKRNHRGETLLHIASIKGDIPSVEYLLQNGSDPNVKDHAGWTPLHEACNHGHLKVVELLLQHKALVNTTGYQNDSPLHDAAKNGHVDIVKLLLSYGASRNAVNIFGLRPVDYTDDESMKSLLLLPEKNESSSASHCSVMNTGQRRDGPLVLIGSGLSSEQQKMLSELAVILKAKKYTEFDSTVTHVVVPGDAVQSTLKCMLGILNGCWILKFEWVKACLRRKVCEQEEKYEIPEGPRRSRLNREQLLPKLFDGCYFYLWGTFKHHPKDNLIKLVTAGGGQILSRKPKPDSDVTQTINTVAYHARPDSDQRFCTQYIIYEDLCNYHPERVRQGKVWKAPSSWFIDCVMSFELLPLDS
UniProt Q99549: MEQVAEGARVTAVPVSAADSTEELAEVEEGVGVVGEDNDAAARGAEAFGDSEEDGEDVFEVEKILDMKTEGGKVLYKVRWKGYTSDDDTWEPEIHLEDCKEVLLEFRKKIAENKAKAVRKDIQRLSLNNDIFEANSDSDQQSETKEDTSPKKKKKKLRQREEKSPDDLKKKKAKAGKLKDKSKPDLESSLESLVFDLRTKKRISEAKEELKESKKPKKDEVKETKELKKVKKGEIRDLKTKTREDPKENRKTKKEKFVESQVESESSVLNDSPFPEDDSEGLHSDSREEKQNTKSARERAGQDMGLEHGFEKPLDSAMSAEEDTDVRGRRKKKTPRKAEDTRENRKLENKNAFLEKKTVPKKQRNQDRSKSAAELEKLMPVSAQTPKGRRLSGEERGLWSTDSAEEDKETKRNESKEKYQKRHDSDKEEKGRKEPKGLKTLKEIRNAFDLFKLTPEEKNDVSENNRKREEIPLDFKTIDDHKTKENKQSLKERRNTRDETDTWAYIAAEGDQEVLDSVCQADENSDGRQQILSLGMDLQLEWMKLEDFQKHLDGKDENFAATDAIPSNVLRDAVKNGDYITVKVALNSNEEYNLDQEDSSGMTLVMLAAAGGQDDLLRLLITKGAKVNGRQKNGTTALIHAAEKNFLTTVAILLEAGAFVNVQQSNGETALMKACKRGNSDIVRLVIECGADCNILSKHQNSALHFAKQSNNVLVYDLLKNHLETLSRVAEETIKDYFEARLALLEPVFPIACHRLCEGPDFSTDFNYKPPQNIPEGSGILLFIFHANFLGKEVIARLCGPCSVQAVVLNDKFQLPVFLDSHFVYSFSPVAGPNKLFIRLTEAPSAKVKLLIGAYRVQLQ
UniProt Q9BSL1: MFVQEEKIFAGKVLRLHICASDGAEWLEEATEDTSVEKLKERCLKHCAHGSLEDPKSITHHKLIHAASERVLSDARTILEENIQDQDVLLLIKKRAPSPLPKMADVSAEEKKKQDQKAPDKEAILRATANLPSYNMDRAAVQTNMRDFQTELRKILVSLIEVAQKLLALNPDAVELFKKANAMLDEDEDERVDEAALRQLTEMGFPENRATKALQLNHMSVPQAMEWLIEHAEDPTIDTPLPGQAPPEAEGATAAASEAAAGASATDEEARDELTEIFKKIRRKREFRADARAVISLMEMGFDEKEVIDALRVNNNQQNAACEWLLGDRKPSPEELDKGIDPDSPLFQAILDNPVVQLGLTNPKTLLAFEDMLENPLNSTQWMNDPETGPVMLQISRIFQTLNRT
UniProt Q9BXL7: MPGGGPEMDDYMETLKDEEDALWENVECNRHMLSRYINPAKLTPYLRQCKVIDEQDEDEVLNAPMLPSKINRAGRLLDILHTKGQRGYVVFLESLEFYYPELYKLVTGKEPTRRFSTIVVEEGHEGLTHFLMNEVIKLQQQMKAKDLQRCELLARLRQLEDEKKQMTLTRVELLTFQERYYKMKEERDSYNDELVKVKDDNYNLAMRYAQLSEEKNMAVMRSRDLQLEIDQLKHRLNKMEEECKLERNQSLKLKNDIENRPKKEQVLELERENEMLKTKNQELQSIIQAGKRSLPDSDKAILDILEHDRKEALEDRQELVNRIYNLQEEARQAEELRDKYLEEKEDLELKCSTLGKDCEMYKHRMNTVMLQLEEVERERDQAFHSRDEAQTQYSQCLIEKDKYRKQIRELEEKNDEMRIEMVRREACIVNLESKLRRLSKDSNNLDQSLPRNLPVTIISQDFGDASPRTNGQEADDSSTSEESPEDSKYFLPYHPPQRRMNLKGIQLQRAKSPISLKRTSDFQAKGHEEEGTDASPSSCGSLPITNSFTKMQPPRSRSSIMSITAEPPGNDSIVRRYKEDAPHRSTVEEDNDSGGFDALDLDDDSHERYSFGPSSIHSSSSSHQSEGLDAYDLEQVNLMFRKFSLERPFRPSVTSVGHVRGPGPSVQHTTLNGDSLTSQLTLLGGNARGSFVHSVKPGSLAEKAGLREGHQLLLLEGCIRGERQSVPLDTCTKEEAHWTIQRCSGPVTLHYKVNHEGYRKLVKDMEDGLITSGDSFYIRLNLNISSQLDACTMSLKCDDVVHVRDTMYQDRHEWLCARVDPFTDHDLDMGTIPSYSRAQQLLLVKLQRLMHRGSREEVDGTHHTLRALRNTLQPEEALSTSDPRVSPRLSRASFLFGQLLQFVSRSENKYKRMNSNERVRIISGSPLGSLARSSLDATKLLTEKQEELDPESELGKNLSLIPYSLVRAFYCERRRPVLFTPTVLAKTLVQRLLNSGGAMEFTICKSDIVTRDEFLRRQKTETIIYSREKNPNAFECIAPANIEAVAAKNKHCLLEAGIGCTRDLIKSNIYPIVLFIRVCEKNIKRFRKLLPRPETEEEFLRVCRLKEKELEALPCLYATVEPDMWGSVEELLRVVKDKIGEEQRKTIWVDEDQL
UniProt Q9BQT9: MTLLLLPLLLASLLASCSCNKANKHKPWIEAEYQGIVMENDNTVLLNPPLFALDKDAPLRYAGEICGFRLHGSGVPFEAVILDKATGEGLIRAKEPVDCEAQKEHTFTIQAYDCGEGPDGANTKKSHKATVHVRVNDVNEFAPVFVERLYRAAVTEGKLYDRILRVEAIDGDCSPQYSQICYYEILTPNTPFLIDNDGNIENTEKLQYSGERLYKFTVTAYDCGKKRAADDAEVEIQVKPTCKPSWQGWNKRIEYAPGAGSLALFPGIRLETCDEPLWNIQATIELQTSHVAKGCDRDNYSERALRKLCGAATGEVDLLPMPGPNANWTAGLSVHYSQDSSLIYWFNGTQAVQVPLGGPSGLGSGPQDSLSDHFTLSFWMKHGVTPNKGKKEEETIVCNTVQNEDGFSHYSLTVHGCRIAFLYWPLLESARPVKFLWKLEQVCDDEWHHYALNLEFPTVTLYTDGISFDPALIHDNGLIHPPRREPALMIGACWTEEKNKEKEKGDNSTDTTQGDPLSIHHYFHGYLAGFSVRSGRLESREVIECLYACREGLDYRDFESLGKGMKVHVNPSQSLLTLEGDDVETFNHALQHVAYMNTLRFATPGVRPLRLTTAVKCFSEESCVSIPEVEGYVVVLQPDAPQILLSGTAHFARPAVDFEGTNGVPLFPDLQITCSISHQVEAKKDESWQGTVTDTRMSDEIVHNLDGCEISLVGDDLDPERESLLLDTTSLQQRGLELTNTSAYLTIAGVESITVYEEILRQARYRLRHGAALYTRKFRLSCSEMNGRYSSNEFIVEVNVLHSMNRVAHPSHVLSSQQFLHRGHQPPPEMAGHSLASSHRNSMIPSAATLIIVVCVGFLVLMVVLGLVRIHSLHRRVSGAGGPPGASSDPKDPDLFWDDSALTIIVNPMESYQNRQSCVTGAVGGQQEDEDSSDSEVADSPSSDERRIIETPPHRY
UniProt Q9BX40: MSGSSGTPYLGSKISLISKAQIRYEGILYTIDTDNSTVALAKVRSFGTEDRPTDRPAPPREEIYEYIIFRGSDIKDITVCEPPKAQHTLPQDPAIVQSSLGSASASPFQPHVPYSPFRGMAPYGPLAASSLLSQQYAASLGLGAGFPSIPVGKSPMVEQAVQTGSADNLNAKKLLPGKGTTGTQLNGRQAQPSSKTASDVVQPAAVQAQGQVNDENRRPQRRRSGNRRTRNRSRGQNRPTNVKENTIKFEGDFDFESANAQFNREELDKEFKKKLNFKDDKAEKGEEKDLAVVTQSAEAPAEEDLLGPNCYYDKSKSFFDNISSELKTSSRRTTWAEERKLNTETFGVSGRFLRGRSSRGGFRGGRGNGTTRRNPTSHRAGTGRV
UniProt Q9BRT6: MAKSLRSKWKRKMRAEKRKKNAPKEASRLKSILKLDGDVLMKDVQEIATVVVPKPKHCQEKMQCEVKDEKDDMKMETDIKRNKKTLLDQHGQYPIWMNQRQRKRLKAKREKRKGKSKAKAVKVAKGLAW
UniProt Q9BXB4: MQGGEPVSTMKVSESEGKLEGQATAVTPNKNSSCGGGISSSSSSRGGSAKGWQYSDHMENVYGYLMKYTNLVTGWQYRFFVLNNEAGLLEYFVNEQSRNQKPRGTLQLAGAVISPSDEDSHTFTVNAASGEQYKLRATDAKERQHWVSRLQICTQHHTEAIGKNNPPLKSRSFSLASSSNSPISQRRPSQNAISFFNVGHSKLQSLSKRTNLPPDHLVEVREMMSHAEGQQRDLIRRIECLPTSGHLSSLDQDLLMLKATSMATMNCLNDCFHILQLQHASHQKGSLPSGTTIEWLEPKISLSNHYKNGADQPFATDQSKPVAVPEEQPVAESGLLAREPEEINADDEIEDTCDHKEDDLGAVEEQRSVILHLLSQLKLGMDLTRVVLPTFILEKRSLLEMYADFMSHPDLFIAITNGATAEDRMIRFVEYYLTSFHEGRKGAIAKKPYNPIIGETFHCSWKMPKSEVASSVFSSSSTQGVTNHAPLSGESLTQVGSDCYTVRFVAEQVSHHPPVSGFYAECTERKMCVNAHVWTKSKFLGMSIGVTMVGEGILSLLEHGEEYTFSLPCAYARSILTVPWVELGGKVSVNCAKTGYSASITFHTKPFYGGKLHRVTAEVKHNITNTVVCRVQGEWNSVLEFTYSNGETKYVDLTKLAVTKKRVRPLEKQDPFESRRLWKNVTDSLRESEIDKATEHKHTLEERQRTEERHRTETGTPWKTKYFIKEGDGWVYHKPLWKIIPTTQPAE

Compound: Nc1ncnc2c1ncn2[C@@H]1O[C@H](COP(=O)(O)OP(=O)(O)NP(=O)(O)O)[C@@H](O)[C@H]1O [adenylyl imidodiphosphate]
Test: NP40-soluble protein abundance relative to vehicle (solubility fold change) (ratio); higher = more soluble protein in presence of AMP-PNP
Procedure, shortened: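 Eight concentrations, 0.1 to 10 mM, were tested on Jurkat crude lysate for 10 min at room temperature and then 3 min at 37 °C, in three independent experiments. The lysate was solubilised with 0.8% NP40 and benzonase, ultracentrifuged, and the supernatant TMT-labelled for LC-MS/MS. Each value is the fold change against the detergent-processed vehicle in its own replicate, from vsn-normalised intensities.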

| Target | NP40-soluble protein abundance (concentration: 1mM) | NP40-soluble protein abundance (concentration: 2mM) | NP40-soluble protein abundance (concentration: 4mM) | NP40-soluble protein abundance (concentration: 6mM) | NP40-soluble protein abundance (concentration: 8mM) | NP40-soluble protein abundance (concentration: 10mM) |
| --- | --- | --- | --- | --- | --- | --- |
| UniProt Q9BSJ2 and related entries | 0.993 ± 0.079 | 0.955 ± 0.083 | 1 ± 0.082 | 0.988 ± 0.14 | 0.982 ± 0.096 | 0.993 ± 0.13 |
| UniProt Q96SN8 and related entries | 1.01 ± 0.053 | 1.044 ± 0.0032 | 1 ± 0.049 | 0.96 ± 0.067 | 0.928 ± 0.023 | 0.947 ± 0.055 |
| UniProt Q96RP9 and related entries | 0.99 ± 0.021 | 0.981 ± 0.031 | 0.989 ± 0.02 | 0.976 ± 0.01 | 0.972 ± 0.022 | 0.949 ± 0.029 |
| UniProt Q99538 and related entries | 0.998 ± 0.025 | 1.06 ± 0.044 | 1.03 ± 0.021 | 1.04 ± 0.037 | 1.03 ± 0.039 | 1.08 ± 0.062 |
| UniProt Q99728 and related entries | 1.04 ± 0.034 | 1.04 ± 0.037 | 1.04 ± 0.054 | 1.05 ± 0.023 | 1.05 ± 0.032 | 1.1 ± 0.052 |
| UniProt Q99549 and related entries | 1.03 ± 0.015 | 1.08 ± 0.053 | 1.05 ± 0.014 | 1.08 ± 0.052 | 1.048 ± 0.0015 | 1.12 ± 0.026 |
| UniProt Q9BRP8 and related entries | 1.03 ± 0.02 | 1.09 ± 0.066 | 1.02 ± 0.04 | 1.02 ± 0.029 | 0.997 ± 0.0032 | 1.01 ± 0.054 |
| NEU1 (UniProt Q99519) | 1.02 ± 0.011 | 1 ± 0.01 | 0.991 ± 0.016 | 1 ± 0.023 | 1 ± 0.029 | 0.995 ± 0.016 |
| SMC6 (UniProt Q96SB8) | 1.04 ± 0.019 | 1.06 ± 0.022 | 1.01 ± 0.031 | 1 ± 0.046 | 0.977 ± 0.041 | 1.05 ± 0.072 |
| UniProt Q9BUV8 and related entries | 1.01 ± 0.052 | 0.991 ± 0.024 | 1.06 ± 0.039 | 1.06 ± 0.023 | 1.12 ± 0.026 | 1.09 ± 0.016 |
| UniProt Q96QU8 and related entries | 1.02 ± 0.022 | 1.019 ± 0.0031 | 1.01 ± 0.026 | 1 ± 0.017 | 1.03 ± 0.023 | 1.03 ± 0.013 |
| TMEM109 (UniProt Q9BVC6) | 0.9777 ± 0.0087 | 0.971 ± 0.043 | 0.935 ± 0.013 | 0.989 ± 0.022 | 0.992 ± 0.036 | 0.955 ± 0.027 |
| UBAC1 (UniProt Q9BSL1) | 0.965 ± 0.0098 | 1.01 ± 0.011 | 0.998 ± 0.028 | 0.955 ± 0.015 | 0.932 ± 0.036 | 0.933 ± 0.034 |
| QTRT1 (UniProt Q9BXR0) | 0.981 ± 0.019 | 0.913 ± 0.1 | 0.997 ± 0.018 | 0.953 ± 0.023 | 0.999 ± 0.02 | 0.939 ± 0.012 |
| UniProt Q9BZE1 and related entries | 0.951 ± 0.018 | 0.911 ± 0.063 | 0.953 ± 0.049 | 0.946 ± 0.019 | 0.95 ± 0.046 | 0.9434 ± 0.0076 |
| RNF5 (UniProt Q99942) | 1.06 ± 0.077 | 1.03 ± 0.045 | 1.03 ± 0.057 | 1 ± 0.033 | 1.03 ± 0.059 | 0.9838 ± 0.0018 |
| KIF2C (UniProt Q99661) | 1.01 ± 0.018 | 1 ± 0.056 | 1.001 ± 0.0041 | 1.03 ± 0.025 | 1.01 ± 0.011 | 1.03 ± 0.03 |
| TCF25 (UniProt Q9BQ70) | 1.09 ± 0.14 | 1.02 ± 0.037 | 1.03 ± 0.061 | 1.05 ± 0.059 | 1.06 ± 0.047 | 1.05 ± 0.075 |
| UniProt Q96RL7 and related entries | 0.982 ± 0.039 | 0.918 ± 0.098 | 0.969 ± 0.012 | 0.916 ± 0.024 | 0.949 ± 0.022 | 0.8993 ± 0.0069 |
| KLF16 (UniProt Q9BXK1) | 1.01 ± 0.047 | 1.002 ± 0.0092 | 1.02 ± 0.045 | 1 ± 0.054 | 1 ± 0.033 | 0.998 ± 0.045 |
| GINS3 (UniProt Q9BRX5) | 0.984 ± 0.031 | 1.01 ± 0.02 | 1 ± 0.036 | 0.959 ± 0.032 | 0.954 ± 0.036 | 0.935 ± 0.066 |
| MED18 (UniProt Q9BUE0) | 0.989 ± 0.028 | 0.959 ± 0.013 | 0.962 ± 0.022 | 0.933 ± 0.059 | 0.911 ± 0.059 | 0.907 ± 0.036 |
| UIMC1 (UniProt Q96RL1) | 1.06 ± 0.033 | 1.11 ± 0.092 | 1.08 ± 0.04 | 1.07 ± 0.043 | 1.03 ± 0.051 | 1.1 ± 0.043 |
| UniProt Q96T21 and related entries | 0.97 ± 0.01 | 1.01 ± 0.037 | 1 ± 0.021 | 1.01 ± 0.018 | 0.9916 ± 0.003 | 1.03 ± 0.038 |
| PSMB7 (UniProt Q99436) | 0.946 ± 0.04 | 0.909 ± 0.061 | 0.906 ± 0.057 | 0.928 ± 0.086 | 0.918 ± 0.081 | 0.9 ± 0.13 |
| CARD11 (UniProt Q9BXL7) | 0.948 ± 0.034 | 0.976 ± 0.019 | 0.96 ± 0.019 | 0.946 ± 0.055 | 0.914 ± 0.036 | 0.934 ± 0.04 |
| UniProt Q9BY44 and related entries | 1.012 ± 0.0058 | 1.007 ± 0.0077 | 0.9922 ± 0.0079 | 1.03 ± 0.016 | 1.01 ± 0.022 | 1.02 ± 0.054 |

| Target | NP40-soluble protein abundance (concentration: 1mM) | NP40-soluble protein abundance (concentration: 2mM) | NP40-soluble protein abundance (concentration: 4mM) | NP40-soluble protein abundance (concentration: 6mM) | NP40-soluble protein abundance (concentration: 8mM) | NP40-soluble protein abundance (concentration: 10mM) |
| --- | --- | --- | --- | --- | --- | --- |
| UniProt Q9BQT9 and related entries | 1.01 ± 0.031 | 1.04 ± 0.035 | 1.02 ± 0.042 | 0.985 ± 0.049 | 0.976 ± 0.022 | 1.01 ± 0.03 |
| SIN3A (UniProt Q96ST3) | 0.95 ± 0.02 | 0.941 ± 0.049 | 0.958 ± 0.037 | 0.947 ± 0.025 | 0.975 ± 0.043 | 0.979 ± 0.063 |
| UniProt Q99081 and related entries | 1.026 ± 0.0055 | 1.03 ± 0.031 | 0.979 ± 0.066 | 0.947 ± 0.019 | 0.93 ± 0.022 | 0.956 ± 0.05 |
| UniProt Q9BX40 and related entries | 1.06 ± 0.022 | 1.09 ± 0.03 | 1.1 ± 0.038 | 1.09 ± 0.012 | 1.11 ± 0.015 | 1.18 ± 0.016 |
| HINT2 (UniProt Q9BX68) | 1.02 ± 0.015 | 1.002 ± 0.0042 | 0.978 ± 0.019 | 0.988 ± 0.013 | 0.991 ± 0.022 | 0.98 ± 0.044 |
| UniProt Q96RQ3 and related entries | 0.971 ± 0.034 | 0.928 ± 0.08 | 0.961 ± 0.058 | 0.934 ± 0.079 | 0.931 ± 0.081 | 0.92 ± 0.11 |
| UniProt Q96RG2 and related entries | 0.9919 ± 0.0087 | 0.997 ± 0.048 | 1.02 ± 0.011 | 0.982 ± 0.021 | 1 ± 0.026 | 0.996 ± 0.024 |
| SIKE1 (UniProt Q9BRV8) | 1.02 ± 0.021 | 1.05 ± 0.014 | 1.01 ± 0.012 | 0.982 ± 0.0015 | 1.008 ± 0.01 | 1.02 ± 0.033 |
| DDA1 (UniProt Q9BW61) | 1.046 ± 0.0013 | 1.05 ± 0.049 | 1.022 ± 0.008 | 0.986 ± 0.013 | 0.972 ± 0.01 | 0.961 ± 0.015 |
| UniProt Q9BV29 and related entries | 0.98852 ± 0.0009 | 1.02 ± 0.016 | 0.9655 ± 0.002 | 0.9884 ± 0.0029 | 0.961 ± 0.037 | 0.96 ± 0.038 |
| LLPH (UniProt Q9BRT6) | 1.06 ± 0.025 | 1.087 ± 0.0039 | 1.11 ± 0.056 | 1.18 ± 0.045 | 1.13 ± 0.059 | 1.24 ± 0.026 |
| OSBPL11 (UniProt Q9BXB4) | 1.02 ± 0.029 | 1.04 ± 0.013 | 1.04 ± 0.016 | 0.959 ± 0.039 | 0.951 ± 0.029 | 0.981 ± 0.045 |
| LYSMD1 (UniProt Q96S90) | 1.01 ± 0.013 | 1.06 ± 0.067 | 0.994 ± 0.042 | 0.981 ± 0.025 | 0.993 ± 0.029 | 1.01 ± 0.033 |
| UniProt Q9BRJ7 and related entries | 1.01 ± 0.036 | 1.01 ± 0.022 | 1.03 ± 0.043 | 1.03 ± 0.036 | 1.04 ± 0.077 | 1.05 ± 0.053 |
| PHF20 (UniProt Q9BVI0) | 1.06 ± 0.033 | 1.13 ± 0.048 | 1.12 ± 0.025 | 1.18 ± 0.042 | 1.16 ± 0.069 | 1.24 ± 0.046 |
| SORT1 (UniProt Q99523) | 0.99 ± 0.034 | 1.05 ± 0.089 | 0.995 ± 0.063 | 1.03 ± 0.055 | 1.03 ± 0.036 | 1.03 ± 0.047 |
| ECSIT (UniProt Q9BQ95) | 0.994 ± 0.013 | 0.953 ± 0.019 | 1 ± 0.019 | 1.01 ± 0.036 | 0.989 ± 0.018 | 0.992 ± 0.044 |
| UniProt Q9BVC4 | 1 ± 0.052 | 0.953 ± 0.033 | 0.949 ± 0.055 | 0.953 ± 0.067 | 0.959 ± 0.063 | 0.969 ± 0.052 |
| UniProt Q9BYX2 and related entries | 0.981 ± 0.013 | 0.9921 ± 0.0015 | 1 ± 0.028 | 0.985 ± 0.042 | 0.972 ± 0.012 | 0.9639 ± 0.0013 |
| NABP2 (UniProt Q9BQ15) | 1.02 ± 0.093 | 1.07 ± 0.071 | 1.04 ± 0.036 | 1.06 ± 0.064 | 1.08 ± 0.066 | 1.12 ± 0.092 |
| UniProt Q96RU2-2 | 0.972 ± 0.028 | 0.9943 ± 0.0032 | 0.9614 ± 0.0074 | 0.956 ± 0.007 | 0.98 ± 0.017 | 0.969 ± 0.052 |
| UniProt Q96TC7 | 0.993 ± 0.038 | 0.993 ± 0.035 | 0.992 ± 0.072 | 0.967 ± 0.072 | 0.944 ± 0.032 | 0.964 ± 0.041 |
| UniProt Q96RR4 and related entries | 1.01 ± 0.016 | 1.05 ± 0.024 | 0.999 ± 0.046 | 0.939 ± 0.025 | 0.941 ± 0.012 | 0.982 ± 0.017 |
| UniProt Q9BYV8 | 0.99 ± 0.027 | 1.04 ± 0.053 | 0.976 ± 0.041 | 0.984 ± 0.038 | 0.954 ± 0.046 | 0.981 ± 0.012 |
| ITPA (UniProt Q9BY32) | 1.03 ± 0.033 | 1.06 ± 0.04 | 1.03 ± 0.051 | 1.04 ± 0.048 | 1.04 ± 0.077 | 1.05 ± 0.097 |
| TARS2 (UniProt Q9BW92) | 0.951 ± 0.014 | 0.878 ± 0.11 | 0.9746 ± 0.0075 | 0.934 ± 0.01 | 0.966 ± 0.032 | 0.9239 ± 0.0078 |
| THUMPD3 (UniProt Q9BV44) | 0.962 ± 0.016 | 0.94 ± 0.016 | 0.9468 ± 0.0043 | 0.93 ± 0.018 | 0.912 ± 0.02 | 0.932 ± 0.017 |

Reformatted with tabs: part of the list above.
Target	NP40-soluble protein abundance (concentration: 1mM)	NP40-soluble protein abundance (concentration: 2mM)	NP40-soluble protein abundance (concentration: 4mM)	NP40-soluble protein abundance (concentration: 6mM)	NP40-soluble protein abundance (concentration: 8mM)	NP40-soluble protein abundance (concentration: 10mM)
UniProt Q9BX40 and related entries	1.06 ± 0.022	1.09 ± 0.03	1.1 ± 0.038	1.09 ± 0.012	1.11 ± 0.015	1.18 ± 0.016
HINT2 (UniProt Q9BX68)	1.02 ± 0.015	1.002 ± 0.0042	0.978 ± 0.019	0.988 ± 0.013	0.991 ± 0.022	0.98 ± 0.044
UniProt Q96RQ3 and related entries	0.971 ± 0.034	0.928 ± 0.08	0.961 ± 0.058	0.934 ± 0.079	0.931 ± 0.081	0.92 ± 0.11
